PubChem BioAssay AID1259424 – University of Nebraska Medical Center – 2018
The deposit covers about 14,000 reagents; shown is a random part of them. 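Higher correlation or smaller distance means closer resemblance to KSR1 loss; control wells, including KSR1 knockdowns, recur on many plates.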 Further read-outs or replicates are left out here. Not given: the time to read-out.

- Purpose: 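Rank knockdowns across the genome by resemblance to the KSR1 depletion profile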 (primary screen)
- Cell system: human HCT116 colon cancer cells
- Reagent: siRNA pool against human genes, 50 nM
- Detection: 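Six signature mRNAs by branched-DNA multiplex assay, scaled to two housekeeping genes and non-targeting median, log2; matched to mean KSR1 knockdown profile by Pearson correlation and euclidean distance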
- Direction: mean correlation with KSR1 profile: higher = expression change more like KSR1 knockdown

POMGNT2 (GeneID 84892): mean correlation with KSR1 profile = 0.765
PIP5K1A (GeneID 8394): mean correlation with KSR1 profile = 0.31
KMT2D (GeneID 8085): mean correlation with KSR1 profile = -0.106
NUP54 (GeneID 53371): mean correlation with KSR1 profile = -0.213
NEURL1 (GeneID 9148): mean correlation with KSR1 profile = 0.798
ADGRG5 (GeneID 221188): mean correlation with KSR1 profile = 0.313
POLR2H (GeneID 5437): mean correlation with KSR1 profile = -0.229
CTF1 (GeneID 1489): mean correlation with KSR1 profile = -0.123
INPP5A (GeneID 3632): mean correlation with KSR1 profile = -0.275
JPH2 (GeneID 57158): mean correlation with KSR1 profile = -0.649
DUX1 (GeneID 26584): mean correlation with KSR1 profile = -0.497
EGFR (GeneID 1956): mean correlation with KSR1 profile = 0.207
PYGO1 (GeneID 26108): mean correlation with KSR1 profile = -0.602
MAS1 (GeneID 4142): mean correlation with KSR1 profile = 0.636
GCNA (GeneID 93953): mean correlation with KSR1 profile = -0.138
PLEKHS1 (GeneID 79949): mean correlation with KSR1 profile = 0.304
ETV3 (GeneID 2117): mean correlation with KSR1 profile = 0.42
MPPED1 (GeneID 758): mean correlation with KSR1 profile = -0.561
SRSF6 (GeneID 6431): mean correlation with KSR1 profile = 0.0475
TIMM23B (GeneID 100652748): mean correlation with KSR1 profile = -0.471
EIF2B2 (GeneID 8892): mean correlation with KSR1 profile = 0.254
PRRX1 (GeneID 5396): mean correlation with KSR1 profile = -0.301
UIMC1 (GeneID 51720): mean correlation with KSR1 profile = -0.0743
RBMY1A1 (GeneID 5940): mean correlation with KSR1 profile = 0.201
BMP6 (GeneID 654): mean correlation with KSR1 profile = -0.213
PHOX2B (GeneID 8929): mean correlation with KSR1 profile = 0.539
FAM110D (GeneID 79927): mean correlation with KSR1 profile = 0.235
ZNF44 (GeneID 51710): mean correlation with KSR1 profile = 0.127
